The subject of data set [1] is cerivastatin-induced APPΔC31 in CHO-7W cells. Nature of the data set: APPΔC31 AlphaLISA dose-response, cerivastatin-induced. Type of data set: cell-based, Chinese hamster. The following applies: Cricetulus griseus, (A) AlphaLISA, 24 h, read-out: IC50 (A), APPΔC31 inhibition. As for the experimental part:
The APPΔC31 AlphaLISA assay (Figures 2C–E) was run directly in the plate with the cell lysate as described above in “AlphaLISA to detect APPΔC31.” APPΔC31 levels were measured using the Envision plate reader and data were normalized to DMSO (100% APPΔC31 production) and Q-VD-OPh (MP Biomedicals) pan-caspase inhibitor at 30 μM (0%); these controls were present on each plate. In addition, some compounds of interest were further analyzed in a dose-response curve to determine IC50 values.
Since APPΔC31 is generated by caspase cleavage and we found some MEK inhibitors in our HTS, select caspase and MEK inhibitors were also tested for inhibition of cerivastatin-induced APPΔC31 in CHO-7W cells for 24 h using dose-response curves determined by AlphaLISA (Supplementary Figure S3B). […] The broad-spectrum pan-caspase inhibitor Q-VD-OPh served as the positive control. […] The MEK inhibitor SL327 was ineffective.
Supplementary file Data_Sheet_1.docx: FIGURE S3 Dose-response curves of APPΔC31 inhibition by thapsigargin and select caspase and MEK inhibitors (A) CHO-7W cells were treated with 10 μM cerivastatin plus increasing doses of thapsigargin for 24 h. Lysates were prepared and APPΔC31 determined by ELISA. (B) CHO-7W cells were treated with 10 μM cerivastatin plus increasing doses of caspase and MEK inhibitors for 24 h. Lysates were prepared and APPΔC31 determined by AlphaLISA. […]

The test system of data set [2] is cerivastatin-induced APPΔC31 production in CHO-7W cells. The data set is described as follows: APPΔC31 ELISA validation assay, cerivastatin-induced. Type of data set: cell-based, Chinese hamster. Particulars: 10 μM cerivastatin, 24 h, test concentration not given. As for the experimental part: The APPΔC31 ELISA developed in partnership with Enzo Life Sciences (ADI-900-227) follows a standard sandwich ELISA design wherein a monoclonal N-terminal APP-specific antibody is used to coat the wells of the microtiter plate (capture antibody) and the anti-APPΔC31 cleavage site-specific polyclonal antibody serves as the detection antibody. An HRP-conjugated secondary antibody is then added and a colorimetric signal generated by enzymatic conversion of the tetramethylbenzidine (TMB) substrate. Protein levels were first determined using a colorimetric coomassie assay (Coomassie Plus, Thermo).
A subset of hits from our HTS was validated in a secondary assay. […] Thapsigargin also acts as a sarco/endoplasmic reticulum calcium ATPase (SERCA) inhibitor. Therefore, another SERCA inhibitor, 2,5-Di-tert-butylhydroquinone, was also added to the testing. In this secondary assay, CHO-7W cells were cultured as described above and plated into 24-well dishes at ∼200K/well. […] These hits were selected for their potency in primary screen, their structural features, their known activities, and availability of compound for additional testing. There were cerivastatin-only (negative control), + QVD-OPh (positive control), and for viability, vehicle-only (negative) controls. Cells were harvested by removing the media to a tube, adding […] trypsin to detach cells then neutralizing with media. […]
(ELISA stands for enzyme-linked immunosorbent assay.)

Data set [3] can be described thus: PAMPA / immobilized artificial membrane (IAM.PC.DD2) chromatography. Type of data set: in vitro ADME. The following applies: IAM.PC.DD2 column. For orientation: The PAMPA barrier holds no transporters, so it reflects passive diffusion.
Data set [4] concerns cerivastatin-induced APPΔC31 in I5 mouse hippocampal slice cultures. Nature of the data set: Ex vivo organotypic hippocampal slice cultures, APPΔC31 ELISA. The following applies: 72 h, read-out: inhibition of APPΔC31 production.

A word on the IC50: it is the midpoint of a concentration-inhibition curve. By inhibition is commonly meant the change of the read-out against control, counted positive when it falls. For the compound `O=C(CCCN1CCC2(CC1)C(=O)NCN2c1ccccc1)c1ccc(F)cc1` [Spiperone], in data set [1], the IC50 was 4.6 µM. Also, the “APPΔC31 Inh. (mean %)” value in data set [2] is 41%. For the same compound, the “KIAM (IAM capacity factor)” value in data set [3] (water/methanol gradient) was 3.1. The “KIAM/MW^4 x 10^10” value in data set [3] (correlation of Yoon et al. (2006)) was found to be 1.85. Further, the inhibition at 10 µM in data set [4] was roughly 14%.

For the origin of these results see article PMC5309220, “Screening for Small Molecule Inhibitors of Statin-Induced APP C-terminal Toxic Fragment Production” (Frontiers in Pharmacology, 2017).
